Measured values as given in publication PMC9223522.

How the values were obtained:
[1] = biological target: Myc-PPARγ (peroxisome proliferator-activated receptor gamma); test: co-IP; two tagged plasmids co-transfected into HEK293T with PEI; lysed after 30 h in cold NP-40 lysis buffer; IP with anti-Myc antibody (Figure 5a) or M2 anti-Flag beads (Figure 5b), immunoblot
HA-SIRT1 (Sirtuin 1) = test: co-IP; constant pCMV-HA-SIRT1 and pCMV-Myc-PPARγ with a gradient amount of pCMV-Flag-DEPP co-transfected into HEK293T; lysed after 30 h in cold NP-40 lysis buffer; IP with anti-HA antibody, immunoblot

binding [1] | binding (HA-SIRT1 (Sirtuin 1)) | Binder
binds | – | HA-DEPP (decidual protein induced by progesterone) (protein, UniProt Q8K2F3 1-205) MRSRLLLPVPHLPTIREMSEELSHGAAGQEPPASPSLDDYVRCICQLAQPTSVLDKVTAQSRPNRPSRPAWTREKRRQAESPGDSSLCVSSLQPTLPSPGTDNPLDWLFGKSQGEQADGRGRPNRTGSSDPWDVPRQMGKDTGRLCEARVPEHSLGRKPGPRHQTSDLKSWTSRKSCRALASVSSSRPSSILGTLYLHLPVIHEL
– | binds | Flag-DEPP (protein, UniProt Q8K2F3 1-205) MRSRLLLPVPHLPTIREMSEELSHGAAGQEPPASPSLDDYVRCICQLAQPTSVLDKVTAQSRPNRPSRPAWTREKRRQAESPGDSSLCVSSLQPTLPSPGTDNPLDWLFGKSQGEQADGRGRPNRTGSSDPWDVPRQMGKDTGRLCEARVPEHSLGRKPGPRHQTSDLKSWTSRKSCRALASVSSSRPSSILGTLYLHLPVIHEL

These are yes or no findings as the source states them, for the method shown. Binding seen in cells or lysates may run through a third protein. Binding can be weak; no strength is given. Sequences can lack the tags named with a protein.
